PubChem BioAssay AID686937, Drosophila RNAi Screening Center, 2013
In all, the deposit lists about 23,000 reagents; this is an unselected part of those with a known target gene and a result. 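Reduced-secretion tags in replicate 1 do not always agree with the z-scores; no criterion for assigning the tags was given.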 Reagents against one gene are numbered here. Names joined by + are all predicted targets of the reagent. Not all columns of the deposit are shown. Not stated in the record: the amount of reagent.

Aim: 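Genes in the fly needed for secretion of protein constitutively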 (primary screen)
Cell system: Drosophila S2 cells expressing secreted horseradish peroxidase
Knock-down reagent: long dsRNA against Drosophila genes
Duration: about 5.5 days (5 days dsRNA, then 12 h reporter induction)
Challenge: reporter expression induced after 5 days of dsRNA, read 12 h later; inducer not stated
Detection: 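Chemiluminescent measurement of peroxidase in the medium 12 h after reporter induction, following 5 days of dsRNA, given as a z-score per plate; higher means more secretion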
Direction: z-score: higher = more reporter secreted into medium

| target | reagent no. | z-score, replicate 1 | z-score, replicate 2 | z-score, replicate 3 |
| --- | --- | --- | --- | --- |
| ifc | 1 | 0.39 | 0.46 | – |
| CG13247 | 1 | 0.28 | 0.41 | – |
| mRpL43 | 1 | -0.19 | 0.25 | 0.37 |
| mRpL43 | 2 | -0.58 | -0.12 | – |
| Ir92a | 1 | 0.22 | 0.28 | – |
| cathD | 1 | 0.28 | 0.22 | – |
| eEF2 | 1 | -3.31 | -4.59 | – |
| CG16781 | 1 | -0.09 | -0.44 | – |
| Aplip1 | 1 | 1 | 0.55 | – |
| Aplip1 | 2 | 0.51 | 0.51 | – |
| Aplip1 | 3 | -0.12 | 0.11 | – |
| CG11843 | 1 | 0.16 | 0.01 | – |
| mRpL28 | 1 | -0.45 | -0.41 | – |
| Or56a | 1 | 0.43 | 0.33 | – |
| CG14860 | 1 | 0.58 | 0.59 | – |
| Pde1c | 1 | 0.32 | 0.34 | – |
| Pde1c | 2 | 0.16 | 0.21 | – |
| Pde1c | 3 | 0.63 | 0.49 | – |
| Pde1c | 4 | 0.49 | 0.5 | – |
| Pde1c | 5 | 0.6 | 0.42 | – |
| Pde1c | 6 | 0.81 | 0.33 | – |
| Drat | 1 | 0.06 | 0.35 | – |
| ash1 | 1 | 0.49 | 0.47 | – |
| Nt5c | 1 | -0.75 | -0.23 | – |
| Doc3 | 1 | 0.26 | 0.35 | – |
| Ufsp1 | 1 | 0.19 | – | – |
| CG3224 | 1 | 0.11 | 0.15 | – |
| Grd | 1 | 0.28 | 0.22 | – |
| sand | 1 | 0.22 | 0.22 | – |
| CG10077 | 1 | 0.03 | 0.09 | – |
| RIC-3 | 1 | 0.23 | 0.26 | – |
| RIC-3 | 2 | 0.05 | 0.25 | – |
| CG7083 | 1 | 0.39 | 0.26 | – |
| CG7298 | 1 | 0.24 | 0.22 | – |
| IleRS | 1 | -0.54 | -0.92 | – |
| CG30496 | 1 | 0.48 | 0.49 | – |
| Ufl1 | 1 | 0.34 | 0.27 | – |
| CG43666 + CG43667 + CG43668 | 1 | -1 | 0.34 | – |
| CG43666 + CG43667 + CG43668 | 2 | 0.13 | 0.38 | – |
| Nf-YC | 1 | -4.52 | -2.43 | – |
| Hr4 | 1 | -2.97 | -1.78 | 0.36 |
| Hr4 | 2 | 0.07 | 0.02 | – |
| Hr4 | 3 | -1.14 | -0.83 | – |
| Hr4 | 4 | 2.48 | 0.94 | – |
| Pgam5 | 1 | 0.43 | 0.28 | – |
| mh | 1 | 0.14 | 0.14 | – |
| Mnr | 1 | 0.23 | 0.3 | – |
| Mnr | 2 | 0.58 | 0.28 | 0.41 |
| Mnr | 3 | -0.55 | -0.23 | – |

The list goes on, starting with the last 6 of the part before.
| target | reagent no. | z-score, replicate 1 | z-score, replicate 2 | z-score, replicate 3 |
| --- | --- | --- | --- | --- |
| Hr4 | 4 | 2.48 | 0.94 | – |
| Pgam5 | 1 | 0.43 | 0.28 | – |
| mh | 1 | 0.14 | 0.14 | – |
| Mnr | 1 | 0.23 | 0.3 | – |
| Mnr | 2 | 0.58 | 0.28 | 0.41 |
| Mnr | 3 | -0.55 | -0.23 | – |
| Obp99a | 1 | -0.51 | -1.7 | – |
| rho-6 | 1 | 0.07 | 0.14 | – |
| Coq7 + shf | 1 | 0.31 | 0.64 | – |
| unc-104 | 1 | 0.44 | 0.48 | – |
| oaf | 1 | 0.32 | 0.36 | – |
| roq | 1 | 0.24 | 0.36 | – |
| CG43101 | 1 | 0.11 | 0.1 | – |
| dob | 1 | 0.2 | 0.48 | – |
| CG5080 | 1 | 0.06 | 0.38 | – |
| CG15475 | 1 | 0.38 | 0.37 | – |
| Polr2F | 1 | -3.7 | -5.36 | – |
| RhoGAP19D | 1 | -0.15 | -0.37 | – |
| RhoGAP19D | 2 | 0.6 | 0.34 | – |
| srp | 1 | 0 | 0 | – |
| srp | 2 | -2.23 | -2.13 | – |
| br | 1 | 0.73 | 0.78 | – |
| br | 2 | 0 | 0.14 | – |
| br | 3 | -0.41 | -0.97 | -0.49 |
| br | 4 | -0.83 | -0.37 | – |
| Zwilch | 1 | 0.31 | 0.32 | – |
| CG10097 + CG10096 | 1 | 0.25 | 0.29 | – |
| CG10097 + CG10096 | 2 | 0.19 | 0.2 | – |
| CG9519 | 1 | 0.44 | 0.37 | – |
| CG31007 | 1 | 0.58 | 0.43 | – |
| CG13713 | 1 | 0.49 | 0.29 | – |
| Rab10 | 1 | -0.7 | 0.17 | – |
| CG17271 | 1 | 0.15 | 0.03 | – |
| CG17271 | 2 | -0.6 | 0.12 | – |
| DIP-alpha | 1 | -1 | 0.29 | – |
| DIP-alpha | 2 | -1.53 | -1.44 | – |
| Syx1A | 1 | -0.68 | -1.08 | – |
| Syx1A | 2 | -1.65 | -0.68 | – |
| CG6769 | 1 | 0.25 | 0.39 | – |
| SLC5A11 | 1 | 0.3 | 0.13 | – |
| SF1 | 1 | -0.67 | -0.82 | – |
| CG14839 | 1 | 0.32 | 0.47 | -0.09 |
| mdlc | 1 | -0.57 | -0.28 | – |
| CG42272 | 1 | -0.16 | 0.36 | – |
| CG42272 | 2 | 0.56 | 0.95 | – |
| whd | 1 | 0.2 | 0.37 | – |
| CG32683 | 1 | 0.55 | 0.45 | – |
| CG32683 | 2 | 0.49 | 0.29 | – |
| CG32683 | 3 | 0.6 | 0.18 | – |
| gny | 1 | 0.5 | 0.25 | – |
| Zaf1 | 1 | 0.28 | 0.55 | – |
| Rh3 | 1 | 0.33 | 0.46 | – |
| CG43092 | 1 | 0.39 | 0.38 | – |
| CG13653 | 1 | 0.11 | 0.08 | – |
| c12.1 | 1 | -1.04 | -0.33 | – |
| lncRNA:CR43451 | 1 | 0.27 | 0.24 | – |
| trv | 1 | 0.36 | 0.02 | – |
| trv | 2 | -0.04 | -0.73 | – |
| trv | 3 | 0.3 | 0.51 | – |
| trv | 4 | 0.39 | 0.67 | – |
| prod | 1 | -1.95 | -2.95 | – |
